Paper PMC3920478, “Small molecule-mediated refolding and activation of myosin motor function” (eLife, 2014)
The source holds more than one record for some entries. This list holds those alone. An entry can have further records. Values that stand side by side differ for a reason that is not stated; some may be repeats, others may stem from another dose, organism or construct than stated.

Chains of the proteins cited; added tags and fusions are not shown. Residues count along the entry.
UniProt P79293, 1-810 limits assumed: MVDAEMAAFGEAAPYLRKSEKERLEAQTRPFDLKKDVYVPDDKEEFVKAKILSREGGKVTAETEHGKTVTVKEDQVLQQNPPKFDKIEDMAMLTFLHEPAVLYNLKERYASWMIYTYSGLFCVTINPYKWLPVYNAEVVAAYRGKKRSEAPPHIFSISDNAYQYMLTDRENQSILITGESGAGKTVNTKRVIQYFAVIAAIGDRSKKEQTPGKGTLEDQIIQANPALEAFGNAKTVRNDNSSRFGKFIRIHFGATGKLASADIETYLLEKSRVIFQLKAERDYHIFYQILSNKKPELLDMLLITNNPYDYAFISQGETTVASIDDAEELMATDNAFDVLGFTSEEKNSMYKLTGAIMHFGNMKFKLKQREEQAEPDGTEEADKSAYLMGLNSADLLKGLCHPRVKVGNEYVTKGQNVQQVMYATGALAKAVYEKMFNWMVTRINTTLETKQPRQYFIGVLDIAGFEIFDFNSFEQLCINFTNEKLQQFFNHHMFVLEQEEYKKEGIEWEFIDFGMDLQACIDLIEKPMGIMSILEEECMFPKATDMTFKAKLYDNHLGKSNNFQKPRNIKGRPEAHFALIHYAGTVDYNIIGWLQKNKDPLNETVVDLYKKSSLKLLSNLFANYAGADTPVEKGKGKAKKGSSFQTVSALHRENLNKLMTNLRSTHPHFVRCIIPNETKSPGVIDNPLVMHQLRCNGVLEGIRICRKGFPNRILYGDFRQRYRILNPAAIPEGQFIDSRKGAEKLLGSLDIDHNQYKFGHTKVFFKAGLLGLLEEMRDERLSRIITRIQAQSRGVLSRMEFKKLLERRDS
UniProt P79293, whole entry: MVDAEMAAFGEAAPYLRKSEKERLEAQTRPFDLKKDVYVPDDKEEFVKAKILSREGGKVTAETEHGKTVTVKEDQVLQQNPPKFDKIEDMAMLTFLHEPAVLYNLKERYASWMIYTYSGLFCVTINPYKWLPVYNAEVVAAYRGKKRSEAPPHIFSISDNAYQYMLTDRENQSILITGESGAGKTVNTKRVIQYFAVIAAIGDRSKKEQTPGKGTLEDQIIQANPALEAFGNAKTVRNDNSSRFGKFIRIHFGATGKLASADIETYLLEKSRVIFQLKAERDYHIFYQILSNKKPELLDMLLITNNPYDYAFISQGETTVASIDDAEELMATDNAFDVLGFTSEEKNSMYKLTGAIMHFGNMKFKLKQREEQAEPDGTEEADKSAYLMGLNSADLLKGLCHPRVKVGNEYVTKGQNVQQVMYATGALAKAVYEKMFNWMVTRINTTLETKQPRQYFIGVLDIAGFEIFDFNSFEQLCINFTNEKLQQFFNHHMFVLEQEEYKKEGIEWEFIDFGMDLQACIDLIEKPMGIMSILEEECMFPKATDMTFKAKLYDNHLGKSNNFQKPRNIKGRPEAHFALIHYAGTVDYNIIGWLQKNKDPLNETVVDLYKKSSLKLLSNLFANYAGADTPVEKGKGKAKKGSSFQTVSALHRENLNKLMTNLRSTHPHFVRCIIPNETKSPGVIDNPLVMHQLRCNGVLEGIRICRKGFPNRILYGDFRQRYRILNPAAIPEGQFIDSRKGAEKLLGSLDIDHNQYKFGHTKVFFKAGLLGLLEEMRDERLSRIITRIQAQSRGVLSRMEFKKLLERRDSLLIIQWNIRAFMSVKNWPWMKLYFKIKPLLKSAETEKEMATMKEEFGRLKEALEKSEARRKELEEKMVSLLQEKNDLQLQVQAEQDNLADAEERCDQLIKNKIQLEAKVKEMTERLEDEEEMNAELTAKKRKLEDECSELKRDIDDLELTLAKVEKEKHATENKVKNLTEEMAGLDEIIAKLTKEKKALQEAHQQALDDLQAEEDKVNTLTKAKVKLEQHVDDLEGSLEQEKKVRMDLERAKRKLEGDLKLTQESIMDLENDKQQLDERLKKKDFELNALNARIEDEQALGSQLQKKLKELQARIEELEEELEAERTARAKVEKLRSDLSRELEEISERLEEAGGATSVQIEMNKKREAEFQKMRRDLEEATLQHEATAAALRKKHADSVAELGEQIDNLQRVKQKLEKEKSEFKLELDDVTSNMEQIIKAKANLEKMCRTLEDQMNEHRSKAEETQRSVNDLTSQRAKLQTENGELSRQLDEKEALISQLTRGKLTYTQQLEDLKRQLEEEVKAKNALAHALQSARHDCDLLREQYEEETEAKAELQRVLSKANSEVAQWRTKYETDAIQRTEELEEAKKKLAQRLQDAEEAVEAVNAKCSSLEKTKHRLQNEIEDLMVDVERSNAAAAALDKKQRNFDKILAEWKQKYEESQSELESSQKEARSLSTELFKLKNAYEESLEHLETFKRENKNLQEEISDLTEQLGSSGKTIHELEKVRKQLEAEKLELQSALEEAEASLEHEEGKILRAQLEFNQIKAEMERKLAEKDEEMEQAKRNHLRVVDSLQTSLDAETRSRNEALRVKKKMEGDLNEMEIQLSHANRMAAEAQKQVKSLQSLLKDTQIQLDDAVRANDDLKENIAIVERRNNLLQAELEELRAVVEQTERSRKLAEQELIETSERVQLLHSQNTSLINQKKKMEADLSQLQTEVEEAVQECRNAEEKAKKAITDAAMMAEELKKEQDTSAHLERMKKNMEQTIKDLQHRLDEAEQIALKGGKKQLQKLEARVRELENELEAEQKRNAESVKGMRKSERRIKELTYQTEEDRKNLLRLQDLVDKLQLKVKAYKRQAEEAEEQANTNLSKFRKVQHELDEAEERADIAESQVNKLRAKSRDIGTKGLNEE

How the values were obtained:
β-cardiac myosin [1] = target: T1, β-cardiac myosin (Sus scrofa, UniProt P79293); test: Transient kinetics (stopped-flow) of the ATPase cycle; conditions: 25 µM EMD 57033 vs control
β-cardiac myosin [2] = target: T1, β-cardiac myosin; test: Steady-state basal and actin-activated Mg2+-ATPase (NADH-coupled assay); format: biochemical, Porcine; conditions: 25 µM EMD 57033 vs control

## COc1ccc(C(=O)N2CCCc3cc(C4=NNC(=O)S[C@@H]4C)ccc32)cc1OC
β-cardiac myosin [1]
  K1k+2 ∼Change (−fold), increase: 3.4 fold and threefold
β-cardiac myosin [2]
  KM(Actin) ∼Change (−fold), decrease = increased apparent actin affinity: 10 fold and more than 10 fold
  kcat/KM(Actin) (calculated ratio) ∼Change (−fold), increase: 16 fold and more than 10 fold
